Measured values from publication PMC4605517, “A High Affinity hRpn2-Derived Peptide That Displaces Human Rpn13 from Proteasome in 293T Cells” (PLoS ONE, 2015).
These are yes or no findings as the source states them, for the method shown. Binding seen in cells or lysates may run through a third protein. Some entries that bind do so weakly or less than the wild type.

By UniProt entry, the sequences of proteins in these tests, tags left out.
UniProt Q16186: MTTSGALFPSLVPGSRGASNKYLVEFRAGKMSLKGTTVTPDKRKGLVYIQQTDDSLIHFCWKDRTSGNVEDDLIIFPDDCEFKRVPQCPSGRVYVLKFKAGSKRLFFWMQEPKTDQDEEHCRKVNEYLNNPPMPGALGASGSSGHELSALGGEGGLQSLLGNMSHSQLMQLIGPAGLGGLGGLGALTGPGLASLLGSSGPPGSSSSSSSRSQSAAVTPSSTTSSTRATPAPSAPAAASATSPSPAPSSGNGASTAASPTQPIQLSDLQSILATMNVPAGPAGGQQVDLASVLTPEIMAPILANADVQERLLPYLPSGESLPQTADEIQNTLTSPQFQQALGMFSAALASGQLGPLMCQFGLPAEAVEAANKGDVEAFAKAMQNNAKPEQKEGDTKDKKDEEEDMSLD

Target: endogenous hRpt3 (human (endogenous in 293T)) (UniProt P43686)
Test: co-IP; 293T lysates (untransfected, or expressing FLAG-hRpn2 (916-953) WT or F948Stop); anti-hRpt3 immunoprecipitation; blots for hRpn13, hRpt3, hRpn2

Substance: endogenous hRpn13 (from UniProt Q16186 1-407)
- binding: binds
